Laboratory results as given in publication PMC3648463, “Common Interactions between S100A4 and S100A9 Defined by a Novel Chemical Probe” (PLoS ONE, 2013).

Chains of the proteins cited; added tags and fusions are not shown. Lines headed by an entry give the natural chain unless they say otherwise; changes in a name come on top.
UniProt Q15109: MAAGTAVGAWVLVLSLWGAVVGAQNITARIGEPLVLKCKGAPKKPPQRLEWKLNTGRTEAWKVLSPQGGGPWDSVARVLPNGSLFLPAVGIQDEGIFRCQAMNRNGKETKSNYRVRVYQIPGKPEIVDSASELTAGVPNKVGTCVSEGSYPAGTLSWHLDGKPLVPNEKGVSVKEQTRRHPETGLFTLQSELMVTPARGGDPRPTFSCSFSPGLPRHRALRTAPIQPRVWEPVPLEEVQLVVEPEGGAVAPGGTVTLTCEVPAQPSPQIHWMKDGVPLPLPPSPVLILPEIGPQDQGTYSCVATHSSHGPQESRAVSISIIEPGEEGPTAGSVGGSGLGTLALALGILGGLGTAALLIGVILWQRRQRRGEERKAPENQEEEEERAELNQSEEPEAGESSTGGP
UniProt P26447: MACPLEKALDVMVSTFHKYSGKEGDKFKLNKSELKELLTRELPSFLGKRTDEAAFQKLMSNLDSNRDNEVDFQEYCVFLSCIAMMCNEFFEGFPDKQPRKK

Legend:
[1] = target: human RAGE (receptor for advanced glycation end-products) (human) (UniProt Q15109); experiment: SPR; inhibition with 0.98-500 ng/mL heparan sulfate (HS): ~1.3 µg/mL S100A4, S100A9 or the 1:1 mixture injected over immobilised RAGE; 1 mM Ca++, 20 µM Zn++, no DMSO; both purified
[2] = target: human RAGE (receptor for advanced glycation end-products) (human) (UniProt Q15109); experiment: SPR; Biacore 3000, inhibition format: S100A9 (50 nM), S100A4 (100 nM) or ~1.3 µg/mL S100A4, S100A9 and their 1:1 mixture, pre-incubated with oxyclozanide (OX), injected over RAGE or TLR4/MD2 immobilised on a CM5 chip (~3 kRU); HBS-P with 1 mM Ca++, 20 µM Zn++, 1% DMSO; both purified
[3] = target: human RAGE (receptor for advanced glycation end-products) (human) (UniProt Q15109); experiment: SPR; S100A4, S100A9 and a 1:1 mixture of S100A4/9 injected (2 min at 30 µL/min) over immobilised RAGE or TLR4; no competitor; both purified

Measured: binding

recombinant human S100A4 (from UniProt P26447 1-101)
binds: all assays above

These are yes or no findings as the source states them, for the method shown. Binding can be weak; no strength is given.
